Measured values: US20170051048A1
Results are given in words; binding and its absence hold for the method and conditions named. Some binding calls cover weakened binding; strength is not graded here.

Sequences of proteins named here, by UniProt entry; tags and fusion partners are left off. A change or cut given only in a name is not applied to a line headed by its entry.
UniProt P01138: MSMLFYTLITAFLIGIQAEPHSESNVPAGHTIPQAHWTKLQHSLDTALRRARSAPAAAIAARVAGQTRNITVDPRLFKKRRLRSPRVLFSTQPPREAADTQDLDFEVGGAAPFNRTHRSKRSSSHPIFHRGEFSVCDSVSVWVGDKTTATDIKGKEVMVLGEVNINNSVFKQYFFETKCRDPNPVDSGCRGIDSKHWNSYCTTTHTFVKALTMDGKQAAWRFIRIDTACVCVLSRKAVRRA

Molecular target: Homo sapiens Beta-Nerve Growth Factor (beta-NGF) (Homo sapiens) (UniProt P01138)
Assay: ELISA, biotinylated NGF on neutravidin plates, anti-human Fc-HRP

binding: binds
B1: Antibody Ab20 (antibody, human IgG1, kappa, N297A, V domains shown)
VH: EVQLVESGGGLVQPGGSLRLSCAASGFTVSTYWMSWVRQAPGKGLEWVGDIYFSNEETNYATSAKGRFTISRDNSKNTLYLQMNSLRAEDTAVYYCARGSPDVEIAIDMWGQGTLVTVSS
VL: DIQMTQSPSSLSASVGDRVTITCQSSQNVYKNNYLSWYQQKPGKVPKLLIYKASTLASGVPSRFSGSGSGTDFTLTISSLQPEDVATYYCAGGYTSSSDNAFGGGTKVEIKR
